These results are taken from article PMC4731022.

The chains behind the UniProt entries cited, without tags or fusion partners. Where a name states a change or a piece, a line headed by the entry shows the natural chain unless it says otherwise.
UniProt P51608: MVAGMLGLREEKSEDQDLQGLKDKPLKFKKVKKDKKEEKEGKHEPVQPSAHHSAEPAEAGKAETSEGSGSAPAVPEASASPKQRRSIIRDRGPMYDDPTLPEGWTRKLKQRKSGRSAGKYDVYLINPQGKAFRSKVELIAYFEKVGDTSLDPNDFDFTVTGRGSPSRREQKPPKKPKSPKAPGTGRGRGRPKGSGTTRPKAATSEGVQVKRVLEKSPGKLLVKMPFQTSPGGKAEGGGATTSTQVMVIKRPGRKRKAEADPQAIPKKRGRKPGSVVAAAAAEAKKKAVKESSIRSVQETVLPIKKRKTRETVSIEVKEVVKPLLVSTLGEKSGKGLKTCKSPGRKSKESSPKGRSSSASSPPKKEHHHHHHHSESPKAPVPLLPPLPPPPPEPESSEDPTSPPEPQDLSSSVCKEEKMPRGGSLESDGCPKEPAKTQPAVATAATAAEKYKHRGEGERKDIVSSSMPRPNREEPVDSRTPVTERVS

Series [1] concerns the target MeCP2 MBD 77-167 WT (UniProt P51608). The series is described as follows: EMSA. Particulars: poly(dA-dT) competitor; 5-methylcytosine at the central CG (C21 of S5, the only CG; methylation of the reverse strand at C37 presumed, not stated explicitly); EMSA: 1 ng probe, 1 ug poly(dA-dT) competitor, 10 mM Tris-HCl pH 7.5, 150 mM KCl, 0.1 mM EDTA, 5% glycerol, 0.1 mg/ml BSA, on ice 20 min; 10% acrylamide TBE gel; recombinant protein; residues 77-167; protein details: C-terminal His (pET30b). In general terms: Mobility shift assays separate free from complexed probe on a gel.

The test system of series [2] is MeCP2 1-205 WT. The series is described as follows: EMSA. Conditions: poly(dA-dT) competitor; 5-methylcytosine at the central CG (C21 of S5, the only CG; methylation of the reverse strand at C37 presumed, not stated explicitly); EMSA: 1 ng probe, 1 ug poly(dA-dT) competitor, 10 mM Tris-HCl pH 7.5, 150 mM KCl, 0.1 mM EDTA, 5% glycerol, 0.1 mg/ml BSA, on ice 20 min; 10% acrylamide TBE gel; recombinant protein; protein details: C-terminal His (pET30b).

Construct, isoform or probe ends are uncertain for at least one entry. At least one verdict was read from the data and is not stated in words by the source.

For “AAGCATGCAATGCCCTGGAACGGAATTCTTCTAATAAAAGATGTATCATTTTAAATGC (double strand) [Bdnf promoter mCG probe]”, the binding result in series [1] and in series [2] was “binds” in each case.
